Laboratory results as given in PubChem BioAssay AID1487 (National Center for Advancing Translational Sciences (NCATS), 2009).
Some of the results follow. Further columns of the screen follow, without active or inactive calls. The list favours compounds with an active or inconclusive main result. The note in brackets gives the kind of curve behind each potency; many fits are weak.

Assay: qHTS Assay for Modulators of Lamin A Splicing
Details: HeLa LMNA splicing GFP/RFP minigene ratio, 48 h
Method in brief: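 S3 HeLa stable clones carrying a lamin A-EGFP splicing minigene plus DsRed2 were seeded at 600 cells/well in Opti-MEM with 2% FBS, pin-dosed and incubated 48 h at 37°C. Acumen cytometry (488 nm) gave the GFP/RFP total-intensity ratio.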

[1] = measured here: GFP splicing reporter channel
[2] = measured here: RFP viability control channel

Compound | AC50 [1] | AC50 [2]
O=C1NC2=C(CCc3ccccc32)C(c2ccccc2)N1 (centres undefined) | 4.47 µM [rising, single point] | 35.5 µM [rising, single point]
CCC(Oc1ccccc1)C(=O)Nc1cc(-c2ccccc2F)nn1-c1ccccc1 (centres undefined) | 0.447 µM [rising, partial curve, poor fit] | –
Cc1sc2nc(SCC(=O)Nc3c(C)n(C)n(-c4ccccc4)c3=O)n(C)c(=O)c2c1C | – | 10 µM [rising, partial curve, poor fit]
O=C(COc1cccc(F)c1)N[C@@H](Cc1ccccc1)c1nc2ccccc2[nH]1 | – | 15.8 µM [rising, single point]
Cc1ccc(-n2nnnc2Sc2nc([N+](=O)[O-])nn2C)cc1C | 20 µM [falling, single point] | 35.5 µM [falling, single point]
COc1ccc2c(c1)O[C@@H](c1ccc3c(c1)OCO3)[C@H](OC(=O)Nc1cc(OC)c(OC)c(OC)c1)C2=O | 35.5 µM [rising, single point] | 35.5 µM [rising, single point]
CCN(CC)S(=O)(=O)c1ccc(Cc2ncc(C(F)(F)F)cc2Cl)s1 | – | 20 µM [rising, single point]
Cc1cccc(/C=N/n2c(-c3ccncc3)n[nH]c2=S)c1 | 14.1 µM [rising, single point] | 35.5 µM [rising, single point]
Cc1ccc(C)c(N(C)S(=O)(=O)c2ccc3[nH]cc(C(=O)NCCN4CCOCC4)c(=O)c3c2)c1 | – | 7.08 µM [rising, partial curve, poor fit]
COc1cc(NC(=O)C(CC(C)C)N2Cc3ccccc3C2=O)cc(OC)c1 (centres undefined) | 0.794 µM [falling, full curve, poor fit] | –
COc1ccc(NS(=O)(=O)c2cc(NC(=O)c3ccncc3)ccc2N2CCOCC2)cc1 | – | 10 µM [falling, partial curve]
COc1ccccc1NS(=O)(=O)c1cc(NC(=S)Nc2cc(C)cc(C)c2)ccc1Cl | 20 µM [rising, single point] | 17.8 µM [rising, partial curve]
Cc1ccc(NC(=O)Cn2c(=O)nc(-c3ccccc3)c3ccccc32)cc1 | 35.5 µM [falling, single point] | 35.5 µM [falling, single point]
CCCOc1cccc(-c2cc(C(=O)NN)c3ccccc3n2)c1 | 10 µM [rising, partial curve, poor fit] | 12.6 µM [rising, single point]
O=c1c(CCc2ccccc2)nc2cncnc2n1Cc1ccccc1Cl | 3.55 µM [falling, partial curve] | –
CCOc1cccc(CNC(=O)c2ccc(N3CCCC3)c(NC(=O)Nc3ccccc3CC)c2)c1 | 35.5 µM [falling, single point] | 35.5 µM [falling, single point]
C/C(=N\NC(=S)Nc1ccc(C)c(C)c1)c1ccc(N2CCOCC2)cc1 | – | 11.2 µM [rising, partial curve]
CNc1ccc(S(=O)(=O)NCC(=O)OCC(=O)Nc2cccc(Cl)c2Cl)cc1[N+](=O)[O-] | 14.1 µM [rising, partial curve, poor fit] | 17.8 µM [rising, single point]
CCCCOc1ccc(CNC(=O)CN2C(=O)CCn3nc(-c4cn(C)c5ccccc45)cc32)cc1 | 0.0112 µM [falling, full curve, poor fit] | 0.00794 µM [falling, full curve, poor fit]
CCOc1cc(/C=N/NC(=O)c2cc(C)n(-c3ccc(F)cc3)c2C)ccc1O | – | 35.5 µM [falling, single point]
Cc1c(C(=O)NCc2cccnc2)oc2ccc(S(=O)(=O)N3CCCCCC3)cc12 | – | 11.2 µM [rising, single point]
CCOC(=O)O[C@@H](C)OC(=O)[C@@H]1N2C(=O)[C@@H](NC(=O)[C@@H](N)c3ccccc3)[C@H]2SC1(C)C | 0.00447 µM [falling, full curve] | 0.00398 µM [falling, full curve, poor fit]
Nc1nc(Nc2cccc(Cl)c2)sc1C(=O)c1ccc(F)cc1 | – | 7.08 µM [falling, partial curve, poor fit]
Cc1ccc(S(=O)(=O)Cn2nnnc2CN2CCN(Cc3ccc4c(c3)OCO4)CC2)cc1 | 1.41 µM [rising, partial curve] | 7.94 µM [rising, partial curve, poor fit]
O=c1[nH]c2sc3c(c2c(=O)n1Cc1ccccc1)CCC3 | – | 25.1 µM [rising, single point]
CS(=O)(=O)Nc1ccc(-c2nc3ccccc3s2)cc1 | 2.82 µM [rising, partial curve] | –
COc1cccc(NC(=S)N(CCc2c(C)[nH]c3ccccc23)Cc2cccs2)c1 | 12.6 µM [rising, single point] | 22.4 µM [rising, single point]

Single records, from the list above. Order of values: AC50 [1] | AC50 [2]
Cc1c(C(=O)NCc2cccnc2)oc2ccc(S(=O)(=O)N3CCCCCC3)cc12 in the list: – | 11.2 µM [rising, single point]
COc1cc(NC(=O)C(CC(C)C)N2Cc3ccccc3C2=O)cc(OC)c1 (centres undefined) in the list: 0.794 µM [falling, full curve, poor fit] | –
Nc1nc(Nc2cccc(Cl)c2)sc1C(=O)c1ccc(F)cc1 in the list: – | 7.08 µM [falling, partial curve, poor fit]

Later entries:

Compound | AC50 [1] | AC50 [2]
CC1C(O)=C(c2nc3ccccc3[nH]2)C(=N)N1c1ccccc1 (centres undefined) | – | 20 µM [rising, single point]
CCCCn1c(NCc2ccc3c(c2)OCO3)nc2ccccc21 | – | 12.6 µM [rising, single point]
Oc1ccc(N=Nc2n[nH]c(-c3ccc(Br)cc3)n2)cc1 | 25.1 µM [falling, partial curve] | 12.6 µM [falling, partial curve]
Cc1c(C(=O)NCCSCc2ccc(Cl)cc2Cl)cccc1[N+](=O)[O-] | 20 µM [falling, single point] | 22.4 µM [falling, partial curve, poor fit]
O=C(CSCc1nc2ccccc2[nH]1)N1CCN(c2cccc(Cl)c2)CC1 | – | 11.2 µM [rising, partial curve]
O=C(NCc1ccco1)c1ccc2c(=O)n(-c3ccccc3)c(=O)n(Cc3cccc(F)c3)c2c1 | – | 0.0794 µM [falling, full curve, poor fit]
O=C(Nc1ccc(OCC(F)(F)C(F)F)c(C(F)(F)F)c1)c1ccccc1O | 35.5 µM [falling, single point] | 12.6 µM [falling, single point]
CN(C)Cc1ccccc1-c1nc(N(C)Cc2ccco2)c2ccccc2n1 | 35.5 µM [rising, single point] | 25.1 µM [rising, single point]
C=CCn1cc(C(=O)NCc2ccc3c(c2)OCO3)c(=O)c2cc(S(=O)(=O)N(CC)CC)ccc21 | 8.91 µM [rising, partial curve] | –
O=C(NCc1ccccn1)c1cc(-c2ccc(Br)cc2)nc2ccccc12 | – | 35.5 µM [rising, single point]
CC(=O)c1c(C)n([O-])c2cc(C)ccc2[n+]1=O | – | 6.31 µM [rising, single point]
O=C(CCCN1C(=O)/C(=C/c2ccccc2Cl)SC1=S)Nc1ccccn1 | 1.26 µM [falling, partial curve, poor fit] | 8.91 µM [rising, partial curve]
C=C(C)c1cccc(C(C)(C)NC(=O)N2CCN(c3ccccc3OC)CC2)c1 | – | 14.1 µM [rising, single point]
COc1ccc(C(=O)NC(=S)Nc2ccc(Cc3ccncc3)cc2)cc1 | – | 35.5 µM [rising, single point]
N#C/C(=C\c1ccccc1)C(=O)Nc1cc(S(=O)(=O)N2CCOCC2)ccc1N1CCCC1 | – | 5.01 µM [rising, single point]
CC(Sc1nc2ccccc2s1)C(=O)N1CCOCC1 (centres undefined) | – | 35.5 µM [rising, single point]
CCn1c(CCNC(=O)c2cccs2)n[nH]c1=S | 0.398 µM [falling, full curve] | 0.0891 µM [falling, full curve, poor fit]
O=C1NN(c2ccc(F)cc2)C(=O)/C1=C/c1cccs1 | 0.708 µM [rising, partial curve] | –
COc1ccccc1Nc1ncc2c(n1)CCN(Cc1cc(F)cc(F)c1)C2 | – | 2.24 µM [rising, single point]
Cc1cc(C)c(NC(=O)CSc2nc(=O)n(Cc3cccnc3)c3c2CCC3)c(C)c1 | – | 0.0282 µM [falling, full curve]
COc1cccc(NC(=O)C(c2ccccc2)N2CCNC(=O)C2)c1 (centres undefined) | 2.82 µM [falling, single point] | –
O=C(CSc1nc2ccccc2n1CC(=O)N1CCCC1)NCc1ccc2c(c1)OCO2 | 4.47 µM [rising, single point] | 5.62 µM [rising, single point]
CCOc1ccc(N2C(=O)C3C(c4ccccc4F)NN(C(=O)c4ccc(C)cc4)C3C2=O)cc1 (centres undefined) | 0.141 µM [falling, full curve, poor fit] | –
Cc1cc(C(=S)N2CCOCC2)c(C)n1-c1ccc(Cl)cc1 | – | 35.5 µM [rising, single point]
COc1cc(C)c(C(=O)Oc2cc(C)c(C(=O)O)c(O)c2C)c(OC)c1C | 14.1 µM [rising, single point] | –
CC(=O)N1CCc2cc(Br)cc(S(=O)(=O)NCCc3cccc(C)c3)c21 | 7.08 µM [falling, partial curve, poor fit] | 14.1 µM [falling, partial curve, poor fit]
